# PubChem BioAssay
# Where “and” joins values, the source holds several entries; their conditions need not be identical. Equal entries are not always repeated. Some of the results follow. These are further read-outs of the screen, such as a control signal, another cell line or another target. No call is given for them. For some assays here: Most of these compounds were active or inconclusive in the main read-out, so they are no random draw.
# How the values were obtained:
# PubChem AID 1586 = conditions: yeast two-hybrid polyglutamine protein interaction, reporter readout; measured here: averaged growth delta OD
# [1] = enhancers of SMN2 over SMN1 splicing, cell-based, SMN2/SMN1 luciferase reporters (AID 1598); conditions: SMN2 vs SMN1 luciferase splicing reporter cells, at 10 µM; SMN1 luciferase ratio: measured here: SMN1 luciferase reporter average; SMN2 luciferase ratio: measured here: SMN2 luciferase reporter average, stronger effect = higher value
# [2] = protection against mutant huntingtin cytotoxicity, PC12 cells, LDH release (AID 1610); conditions: PC12 mutant huntingtin toxicity, final LDH at 4 uM, stronger effect = lower value
Structure (SMILES),signal change (36 h minus 0 h) (PubChem AID 1586),SMN1 luciferase ratio [1],SMN2 luciferase ratio [1],normalised LDH release [2]
Nc1ccc(C(=O)O)c(O)c1,0.122,0.9,0.88,0.958
CCN(CCO)CCCC(C)Nc1ccnc2cc(Cl)ccc12 (stereo not drawn),0.119,0.89,0.93,1.16
COC(=O)C1=C(C)NC(C)=C(C(=O)OCCN(C)Cc2ccccc2)C1c1cccc([N+](=O)[O-])c1 (stereo not drawn),0.211,1,1.04,0.693
CC(=O)N=c1sc(S(N)(=O)=O)nn1C,0.0881,0.93,0.85,1.1
CCN(CC)CCOC(=O)C(Cc1cccc2ccccc12)CC1CCCO1 (stereo not drawn),0.2,0.82,0.96,0.61
O=c1cc(-c2ccccc2)oc2cc(O)c(O)cc12,0.144,2.03,2.27,0.947
COc1ccc(-c2cc(=O)c3c(O)cc(O)cc3o2)cc1,0.05,1.21,1.08,0.862
CN(C)CCCN1c2ccccc2CCc2ccccc21,0.184,0.9,0.83,0.742
CN(C)CCC=C1c2ccccc2C=Cc2ccccc21,0.175,0.84,0.84,1.04
O=C(O)c1cc(O)ccc1O,0.182,0.89,0.93,1.06
Cc1ccsc1/C=C/C1=NCCCN1C,0.146,0.96,0.91,0.52
CC[C@@H](CO)NCCN[C@@H](CC)CO,0.154,0.91,0.92,1
Nc1ncnc2c1ncn2C1OC(CO)[C@H](O)C1O (stereo partly drawn),0.178,0.93,0.98,0.867
CC[C@H]1CN2CCc3cc(OC)c(OC)cc3C2C[C@@H]1CC1NCCc2cc(OC)c(OC)cc21 (stereo partly drawn),0.19,0.29,0.63,0.774
CC(=O)N[C@@H]1[C@@H](O)[C@H](O)[C@@H](CO)O[C@H]1O,0.125,0.84,0.83,0.925
NCC[C@@H](O)C(=O)N[C@@H]1C[C@H](N)[C@@H](O[C@H]2O[C@H](CN)[C@@H](O)[C@H](O)[C@H]2O)[C@H](O)[C@H]1O[C@H]1O[C@H](CO)[C@@H](O)[C@H](N)C1O (stereo partly drawn),0.0678,0.97,1,0.455
CCC1(c2ccccc2)C(=O)NCNC1=O,0.189,0.82,0.78,0.97
CCN(CC)CCNC(=O)c1cc(Cl)c(N)cc1OC,0.179,0.85,0.94,0.799
CCN(CC)C(=O)c1cccc(C)c1,0.0833,0.8,0.85,1.01
COc1ccc([C@@H]2CC(=O)c3c(O)cc(O[C@@H]4O[C@H](CO[C@H]5O[C@@H](C)[C@H](O)[C@@H](O)[C@H]5O)[C@@H](O)[C@H](O)[C@H]4O)cc3O2)cc1O,0.24,0.92,0.95,0.8
O=C(O)CCC(=O)Nc1ccc(S(=O)(=O)Nc2nccs2)cc1,0.321,0.92,1.02,1.04
CC1(C)S[C@@H]2C(N3C(=O)[C@@H](c4ccccc4)NC3(C)C)C(=O)N2[C@H]1C(=O)O (stereo partly drawn),0.125,0.86,0.77,0.496
CO/N=C(\C(=O)NC1C(=O)N2C(C(=O)O)=C(CSc3nc(=O)c(O)nn3C)CS[C@H]12)c1csc(N)n1 (stereo partly drawn),0.106,1.01,0.94,0.786
CC1(C)S[C@@H]2[C@H](NC(=O)Cc3ccccc3)C(=O)N2[C@H]1C(=O)O,0.0876,0.97,0.85,0.768

Structure (SMILES),signal change (36 h minus 0 h) (PubChem AID 1586),SMN1 luciferase ratio [1],SMN2 luciferase ratio [1],normalised LDH release [2]
CC(Oc1ccccc1)C(=O)NC1C(=O)N2C(C(=O)O)C(C)(C)S[C@H]12 (stereo partly drawn),0.199,0.96,1.01,1.57
NC(Cn1ccc(=O)c(O)c1)C(=O)O (stereo not drawn),0.21,0.84,0.8,0.532
COC(=O)C1=C(C)NC(C)=C(C(=O)OC)C1c1ccccc1[N+](=O)[O-],0.0253,0.93,0.93,0.869
CC(=O)Nc1ccccc1,0.0466 and 0.103,0.85 and 0.86,0.97 and 0.88,0.803 and 1.04
NCCCCCCNS(=O)(=O)c1cccc2c(Cl)cccc12,0.407 and 0.189 and 0.0848,0.91 and 0.82 and 0.83,0.95 and 0.87 and 0.94,1.11 and 1.1 and 0.937
NS(=O)(=O)c1cc2c(cc1Cl)NC=NS2(=O)=O,0.259,0.92,0.85,1.1
O=C(O)c1ccccc1Nc1cccc(C(F)(F)F)c1,0.0419,0.96,1.01,0.812
C[N+]1(C)C2CC(OC(=O)[C@@H](CO)c3ccccc3)CC1C1OC12 (stereo partly drawn),0.185,0.89,1.07,0.337
OCc1ccccc1O,0.0355,0.95,1,1.04
CC[C@H](C)C(=O)O[C@H]1C[C@@H](C)C=C2C=C[C@H](C)[C@H](CC[C@@H]3C[C@@H](O)CC(=O)O3)[C@H]21,0.133,1.04,1.02,0.965
CC(=O)O[C@H]1C[C@@]2(C)[C@@H](C[C@@H](O)C3[C@]2(C)CC[C@H]2[C@H](C)[C@H](O)CC[C@]32C)/C1=C(/CCC=C(C)C)C(=O)O (stereo partly drawn),0.184,0.82,0.93,0.873
CCOC(=O)c1ccc(N)cc1,0.207,1.25,1.34,1.18
COc1ccc2cc([C@H](C)C(=O)O)ccc2c1,0.0922,0.96,0.87,1.03
CN1C[C@H](C(=O)N[C@]2(C)O[C@@]3(O)[C@@H]4CCCN4C(=O)[C@H](Cc4ccccc4)N3C2=O)C[C@@H]2c3cccc4[nH]cc(c34)C[C@H]21,0.114,0.96,0.93,1.27
CC1(C)S[C@@H]2[C@H](NC(=O)C(C(=O)O)c3ccccc3)C(=O)N2[C@H]1C(=O)O (stereo partly drawn),0.142,0.94,0.84,1.03
O=C(O)CCCCC1SCC2NC(=O)NC21 (stereo not drawn),0.0453,1.04,0.83,1.57
Oc1c(Cl)cc(Cl)c2cccnc12,-0.0148,0.95,0.93,0.8
CCCc1ncc(C[n+]2ccccc2C)c(N)n1,0.139,0.84,0.92,1.24
NC(=O)c1cccc(N)c1,0.16,0.87,0.88,1.04
O=C1CCC(N2C(=O)c3ccccc3C2=O)C(=O)N1 (stereo not drawn),0.19,0.91,0.9,0.872
Nc1ccc(S(=O)(=O)Nc2ccccn2)cc1,0.198,0.86,0.88,1.11
COC(=O)Nc1nc2ccc(C(=O)c3ccccc3)cc2[nH]1,0.336,1.1,1.04,0.805

# Not a retest: an excerpt of the list.
Structure (SMILES),signal change (36 h minus 0 h) (PubChem AID 1586),SMN1 luciferase ratio [1],SMN2 luciferase ratio [1],normalised LDH release [2]
CC1(C)S[C@@H]2[C@H](NC(=O)Cc3ccccc3)C(=O)N2[C@H]1C(=O)O,0.0876,0.97,0.85,0.768
CC(Oc1ccccc1)C(=O)NC1C(=O)N2C(C(=O)O)C(C)(C)S[C@H]12 (stereo partly drawn),0.199,0.96,1.01,1.57
NC(Cn1ccc(=O)c(O)c1)C(=O)O (stereo not drawn),0.21,0.84,0.8,0.532
COC(=O)C1=C(C)NC(C)=C(C(=O)OC)C1c1ccccc1[N+](=O)[O-],0.0253,0.93,0.93,0.869
